Reference: publication PMC6733876
No constants are given. Whether binding was seen depends on the method and setting. Some binding calls cover weakened binding; strength is not graded here. Blank lines part the entries; values can stand above or below the molecule they belong to.

By UniProt entry, the sequences of proteins in these tests, tags left out. Where a name states a change or a piece, a line headed by the entry shows the natural chain unless it says otherwise.
UniProt P98086: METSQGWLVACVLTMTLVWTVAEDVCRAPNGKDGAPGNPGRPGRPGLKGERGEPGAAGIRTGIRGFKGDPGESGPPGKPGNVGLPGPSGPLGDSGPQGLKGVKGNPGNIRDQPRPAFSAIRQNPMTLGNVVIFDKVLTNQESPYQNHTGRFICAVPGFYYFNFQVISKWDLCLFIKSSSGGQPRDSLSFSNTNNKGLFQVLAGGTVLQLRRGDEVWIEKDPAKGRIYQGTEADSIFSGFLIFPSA

Key:
[1] = target: human dendritic cell-specific intercellular adhesion molecule-3-grabbing nonintegrin (DC-SIGN), stable DCEK transfectant (human) (UniProt Q9NNX6); assay: binding to transfected cells, immunoblot of the cell lysates; wild-type or DCEK transfectants incubated with 3% sera (NMS, NHS or C1q-depleted human serum) in TC buffer for 1 h at 37 °C; lysates immunoblotted for C1q
[2] = target: SIGN-R1, stable DCEK transfectant (mouse) (UniProt Q8CJ91); assay: immunoblot of sucrose gradient fractions (monomer, dimer and multimer bands on SDS-PAGE); cells or tissues solubilised in 1% Triton X-100 in MES-buffered saline, sucrose gradient ultracentrifugation, 12 fractions, immunoblotted for DC-SIGN or SIGN-R1; without or with S. pneumoniae
[3] = target: SIGN-R1, endogenous in mouse spleen and lymph node (mouse (endogenous in spleen)) (UniProt Q8CJ91); assay: as above
[4] = target: T1, DC-SIGN in spleens of DC-SIGN^BMT/SIGN-R1^TKO mice (human), Q9NNX6; assay: as above; details: remark: other sources report otherwise
T1 chain: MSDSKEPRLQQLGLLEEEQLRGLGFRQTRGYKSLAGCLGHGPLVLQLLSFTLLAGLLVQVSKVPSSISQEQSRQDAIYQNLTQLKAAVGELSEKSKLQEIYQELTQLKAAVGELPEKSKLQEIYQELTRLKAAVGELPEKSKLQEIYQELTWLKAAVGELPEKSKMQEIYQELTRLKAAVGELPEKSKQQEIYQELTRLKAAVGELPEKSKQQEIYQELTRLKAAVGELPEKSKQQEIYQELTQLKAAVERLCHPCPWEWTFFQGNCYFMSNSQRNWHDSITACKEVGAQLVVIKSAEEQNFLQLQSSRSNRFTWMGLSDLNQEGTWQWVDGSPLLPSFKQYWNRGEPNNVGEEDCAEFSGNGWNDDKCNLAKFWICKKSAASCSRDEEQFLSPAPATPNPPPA

[5] = target: T2, human dendritic cell-specific intercellular adhesion molecule-3-grabbing nonintegrin (DC-SIGN), stable DCEK transfectant (human), Q9NNX6; assay: as above; details: remark: other sources report otherwise
T2 chain: T1 chain

binding [1]: binds
Molecule: mouse C1q from normal mouse serum (from UniProt P98086 23-245; P14106 26-253; Q02105 30-246) (complex)

binding [2]: binds
B1: SIGN-R1, stable DCEK transfectant (receptor, UniProt Q8CJ91 1-325)
chain: MSDSTEAKMQPLSSMDDDELMVSGSRYSIKSSRLRPNSGIKCLAGCSGHSQVPLVLQLLSFLFLAGLLLIILFQVSKTPNTERQKEQEKILQELTQLTDELTSRIPISQGKNESMQAKITEQLMQLKTELLSRIPIFQGQNESIQEKISEQLMQLKAELLSKISSFPVKDDSKQEKIYQQLVQMKTELFRLCRLCPWDWTFLLGNCYFFSKSQRNWNDAVTACKEVKAQLVIINSDEEQTFLQQTSKAKGPTWMGLSDLKKEATWLWVDGSTLSSRFQKYWNRGEPNNIGEEDCVEFAGDGWNDSKCELKKFWICKKSATPCTEG

binding [5]: binds
B4: human dendritic cell-specific intercellular adhesion molecule-3-grabbing nonintegrin (DC-SIGN), stable DCEK transfectant, Q9NNX6 1-404 (receptor)
chain: T1 chain

Further lines, the molecule ahead of its results:

B2: SIGN-R1, endogenous in mouse spleen and lymph node (receptor, UniProt Q8CJ91 1-325)
chain: B1 chain
binding [3]: binds

B3: DC-SIGN in spleens of DC-SIGN^BMT/SIGN-R1^TKO mice, Q9NNX6 1-404 (receptor)
chain: T1 chain
binding [4]: binds
